Reference: patent US11351156B2, “Combination treatment of pancreatic cancer” (INSERM (Institut National de la Santé et de la Recherche …, priority 2017, dated 2022)
At least one compound was matched to its structure with a doubt left.

Tests used:
pAkt = test: Western blot of Akt phosphorylation in serum-starved, inhibitor-pretreated, stimulated Capan-1 cells; assay type: cell-based, human; conditions: Capan-1, serum stimulation 10 min
Procedure: Pancreatic cancer cell were cultured consistent conditions. Eight hours after plating of cells, they were serum-starved during 16 h, over-night. Cells were pre-treated with inhibitors or their accordingly diluted vehicle (DMSO) during 1 h, then stimulated or not for 10 min or 24 h with 2% FBS, for 10 min with […] EGF, 100 nM Insulin, 50 ng/ml IGF-1, 1 μM LPA, 30 ng/ml PDGF, 200 nM S1P, 1× amino acids or 2 g/l glucose.
Cells were harvested on ice, washed twice with cold PBS, collected, and frozen at −80° C.

[1] = test system: gemcitabine-resistant metastatic pancreatic cancer; conditions: gemcitabine-resistant metastatic pancreatic cancer patients; cited from earlier work

SMILES | pAkt and all downstream signals (pAkt) | clinical / therapeutic activity [1]
O=c1cc(N2CCOCC2)oc2c(-c3ccccc3)cccc12 [LY-294002] | completely abolish | 
CO[C@H]1C[C@@H]2CC[C@@H](C)[C@@](O)(O2)C(=O)C(=O)N2CCCC[C@H]2C(=O)O[C@H]([C@H](C)C[C@@H]2CC[C@@H](O)[C@H](OC)C2)CC(=O)[C@H](C)/C=C(\C)[C@@H](O)[C@@H](OC)C(=O)[C@H](C)C[C@H](C)/C=C/C=C/C=C/1C [Sirolimus] |  | failed to demonstrate the therapeutic activity
